From PubChem BioAssay AID602313 (National Center for Advancing Translational Sciences (NCATS), 2012)
In all, about 390,000 compounds went through this assay and about 760 (0.19%) were called active. The inconclusive results got no clear call from the source; some entries with a clear call stand among them for comparison. The call rests on the fitted dose curve; in most records, active means well fitted inhibition curve with a large enough effect; inconclusive means small, poorly fitted or top-dose-only effect; inactive means flat fitted curve, though single readings scatter. Potencies beside an inconclusive call are fits to weak or partial responses and may not hold up.
Potency means the concentration at half of the fitted maximal effect.

Test: qHTS for Inhibitors of Vif-A3F Interactions: qHTS; further: nearly all actives have a fitted effect of over 65% in size; on activity, negative = active: % of control where 0% means no effect
Conditions: HeLa A3F-eYFP + Vif (tagged APOBEC3F with the HIV-1 protein that degrades it), YFP fluorescence increase; series mostly up to 46.1 µM; activity, negative = active: at the top concentration
Summary of the method: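 HeLa cells stably expressing A3F-eYFP plus Vif, plated and incubated overnight at 37 deg C, then exposed to compounds overnight at 37 deg C. Blocked degradation read as raised yellow fluorescence (Ex 488/Em 500-530).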
In the case of `O=C(CCc1ccccc1)NC(=S)NCc1ccco1`, the Potency is reported as inconclusive: 20 µM [inhibitor, single point]. With `O=C(/C=C(O)/C=C/c1ccc(O)cc1)/C=C/c1ccc(O)cc1` the Potency was inconclusive: 31.6 µM [inhibitor, single point]. In the case of `Cc1ccc(-n2cc(CN3CCN(C(=O)c4ncn[nH]4)CC3)c(-c3ccc(F)cc3)n2)cc1`, the “activity, negative = active” value is reported as inactive: 1.54%. With `O=C(CCC1CCCN(C(=O)Cn2cnnn2)C1)NCc1ccc(F)c(F)c1` (centres undefined) the Potency was inconclusive: 1.12 µM [inhibitor, partial curve, poor fit]. For `O=C(NC(=S)Nc1ccccc1N1CCCCC1)c1ccc(F)cc1`, the Potency was inconclusive: 35.5 µM [inhibitor, single point]. With `Cc1c(-c2cccc(Cl)c2)nc2ccccc2c1C(=O)OC/C(O)=C(\C#N)c1nc2ccccc2[nH]1` the Potency was inconclusive: 3.55 µM [inhibitor, full curve, poor fit]. With `COc1cccc(/C=C/C(=O)OCC(=O)NCc2ccco2)c1OC` the Potency was inconclusive: 35.5 µM [inhibitor, single point]. In the case of `O=C(NCCc1ccc(C(F)(F)F)cc1)C1CCC(=O)N(C2CC2)C1` (centres undefined), the Potency is reported as inconclusive: 11.2 µM [inhibitor, partial curve, poor fit]. For `CN(C)c1ccc(C=C2C=Cc3ccccc32)cc1`, the Potency was inconclusive: 35.5 µM [inhibitor, single point]. For `O=C(Nc1cc(Cl)ccc1Cl)c1cc(S(=O)(=O)NCCc2ccccc2)ccc1F`, the “activity, negative = active” value was inactive: 4.03%. With `Cc1cc(-c2ccccc2)n(-c2cc(N/N=C/c3ccccc3O)ncn2)n1` the Potency was inconclusive: 3.55 µM [inhibitor, partial curve, poor fit]. For `CC1(C)CC(=O)C2=C(C1)OC(N)=C(C#N)C2c1cc2c(cc1[N+](=O)[O-])OCO2` (centres undefined), the Potency was inconclusive: 5.01 µM [inhibitor, full curve]. For `O=C(Cn1cc(C(=O)C2CC2)c2ccccc21)Nc1ccc(F)cc1`, the Potency was inconclusive: 31.6 µM [inhibitor, single point]. In the case of `CCN(CCNC(=O)C1CCN(Cc2nc(-c3ccc(Cl)cc3)oc2C)CC1)c1ccccc1`, the “activity, negative = active” value is reported as inactive: 0.0723%. In the case of `Fc1ccc(Br)cc1C1C=C(c2ccc(Br)s2)Nc2ncnn21` (centres undefined), the Potency is reported as active: 22.4 µM. In the case of `COc1cccc(NC(=O)COc2coc(CN3CCN(c4ccccc4)CC3)cc2=O)c1`, the Potency is reported as inconclusive: 28.2 µM [inhibitor, partial curve, poor fit]. In the case of `CC(C)CN(C(=O)c1cc(Cl)nc2ccccc12)C1CCS(=O)(=O)C1` (centres undefined), the Potency is reported as inconclusive: 35.5 µM [inhibitor, partial curve, poor fit]. In the case of `COc1ccc2nc(SCC(=O)Nc3cc(C)on3)c(C#N)cc2c1`, the Potency is reported as inconclusive: 22.4 µM [inhibitor, single point]. For `O=C(NCCCSc1ccccc1)c1cc(Cl)ccc1O`, the “activity, negative = active” value was inactive: 2.41%. For `COc1ccc(/C=C2\SC(=S)N(CCCC(=O)Nc3ccccn3)C2=O)cc1OC`, the Potency was inconclusive: 35.5 µM [inhibitor, single point]. For `C=CCOc1ccc(C2C(C(=O)c3cccs3)=C(O)C(=O)N2c2nnc(C)s2)cc1` (centres undefined), the Potency was inconclusive: 7.08 µM [inhibitor, partial curve, poor fit]. With `Cc1ccc(OCCOCCOc2cccc3cccnc23)c(Br)c1` the “activity, negative = active” value was inactive: 3.12%. For `CCn1c(/C=C/c2c[nH]c3ccccc23)nc2ccccc2c1=O`, the Potency was inconclusive: 35.5 µM [inhibitor, single point]. In the case of `CCCCCn1c(=O)[nH]c2cc(C(=O)NC3CCN(Cc4ccccc4)CC3)ccc2c1=O`, the Potency is reported as inconclusive: 5.62 µM [inhibitor, single point]. With `CC(C)OC(=O)CC(=O)c1sc2nc3c(cc2c1N)CN(C)CC3` the “activity, negative = active” value was inactive: -13.2%. With `CCC/C=N/NC(=O)C1COc2ccccc2O1` (centres undefined) the Potency was inconclusive: 35.5 µM [inhibitor, single point]. For `COc1ccccc1CN(C(=O)CNC(=O)c1ccco1)C(C(=O)NCC1CCCO1)c1ccccc1` (centres undefined), the Potency was inconclusive: 3.55 µM [inhibitor, partial curve, poor fit]. For `CCCCCCSc1ccc(-c2nc3cc(C)ccn3c2NC2CCCCC2)cc1`, the Potency was inconclusive: 35.5 µM [inhibitor, single point]. For `CC(C)[C@@H](CO)NC(=O)c1ccc2c3n(nc2c1)-c1ccccc1CO3`, the “activity, negative = active” value was inactive: 2.92%. With `COC(=O)c1cccc(NC(=S)Nc2cccc(Cl)c2Cl)c1` the Potency was inconclusive: 5.01 µM [inhibitor, partial curve, poor fit]. In the case of `Cc1ccc(CSc2c(C)cnc3c2c(=O)n(C)c(=O)n3C)cc1`, the “activity, negative = active” value is reported as inactive: -12.4%. For `Cc1ccc(NC(=O)C2SC(=Nc3ccccc3)C(C(=O)Nc3ccc(Cl)cc3)=C2N)cc1` (centres undefined), the “activity, negative = active” value was inactive: -13%. With `CC12CCC(=O)CC1CCC1C2CCC2(C)C1CCC2(O)C(=O)CO` (centres undefined) the Potency was inconclusive: 5.62 µM [inhibitor, single point]. For `Cc1onc(-c2ccccc2)c1C(=O)Nc1nnc(COc2ccc(Cl)cc2)s1`, the “activity, negative = active” value was inactive: 0.751%. In the case of `CC1=CC2=NC(=O)/C(=C/c3coc4ccc(Cl)cc4c3=O)C(=N)N2O1`, the Potency is reported as inconclusive: 15.8 µM [inhibitor, partial curve, poor fit]. In the case of `CCc1ccc(C(=O)Nc2cccnc2Oc2ccc(Cl)cc2)cc1`, the Potency is reported as inconclusive: 15.8 µM [inhibitor, partial curve, poor fit]. With `N/C(=N\OC(=O)c1cccc([N+](=O)[O-])c1)c1ccccn1` the Potency was inconclusive: 22.4 µM [inhibitor, single point]. With `Cc1ccnc(SCC(=O)c2ccc(Br)cc2)c1C#N` the Potency was inconclusive: 35.5 µM [inhibitor, single point]. For `COc1cccc(/C=N/NC(=O)c2oc3nc(-c4ccccc4)cc(-c4ccco4)c3c2N)c1`, the Potency was inconclusive: 35.5 µM [inhibitor, single point]. In the case of `N#C/C(=C/c1ccc(-c2ccc(S(N)(=O)=O)cc2)o1)C(=O)Nc1ccccc1`, the Potency is reported as inconclusive: 11.2 µM [inhibitor, partial curve, poor fit]. In the case of `Oc1cccc(NC(=S)Nc2cccnc2)c1`, the Potency is reported as inconclusive: 25.1 µM [inhibitor, single point]. In the case of `Cc1ccc(C(C)C)c(OCc2ccc(C(=O)N/N=C/c3cccc(O)c3O)cc2)c1`, the “activity, negative = active” value is reported as inactive: -3.68%. In the case of `CCN(CC)c1ccc2cc(S(=O)(=O)c3ccc(Cl)cc3)c(=O)oc2c1`, the Potency is reported as inconclusive: 35.5 µM [inhibitor, single point]. For `COc1ccc(CCc2ccc3ccccc3n2)cc1`, the Potency was inconclusive: 6.31 µM [inhibitor, single point]. With `COc1ccc2c(CNCCc3ccc(SC)cc3)c(C(=O)O)n(Cc3ccc(F)cc3)c2c1` the Potency was inconclusive: 35.5 µM [inhibitor, single point]. With `CN(C(=O)c1ccc(Cl)cc1)C1CCS(=O)(=O)C1` (centres undefined) the Potency was inconclusive: 2.51 µM [inhibitor, partial curve, poor fit]. In the case of `COc1ccc(/C=N\NC(=O)c2ccccc2Cl)cc1COc1c(F)c(F)c(F)c(F)c1F`, the “activity, negative = active” value is reported as inactive: -4.8%. In the case of `Cc1ccc(S(=O)(=O)N2CCCC2C(=O)NCCc2ccccc2)cc1` (centres undefined), the Potency is reported as inconclusive: 35.5 µM [inhibitor, single point]. For `COC(=O)CSc1[nH]c2ccc(Br)cc2c1[N+](=O)[O-]`, the Potency was inconclusive: 3.16 µM [inhibitor, single point]. With `C/C=C(/C(=C/C)c1ccc(O)cc1)c1ccc(O)cc1` the “activity, negative = active” value was inactive: -14.2%. With `O=C(CCNS(=O)(=O)c1ccccc1C(F)(F)F)NCCCN1CCOCC1` the Potency was inconclusive: 10 µM [inhibitor, partial curve, poor fit]. In the case of `NS(=O)(=O)c1ccc(Nc2nc(-c3ccc(F)cc3)cs2)cc1`, the “activity, negative = active” value is reported as inactive: -12.3%. For `CC(C)(C)OC(=O)N1CCN(C(=O)c2[nH]cnc2C(=O)N[C@@H](Cc2ccccc2)C(=O)OCc2ccccc2)CC1`, the Potency was inconclusive: 35.5 µM [inhibitor, single point]. With `O=C(CCS(=O)(=O)c1ccc(Cl)cc1)NCCc1c[nH]c2ccccc12` the Potency was inconclusive: 5.62 µM [inhibitor, single point]. With `O=C1c2ccccc2-c2onc3c(N4CCN(C5CCCCC5)CC4)cc(NCCO)c1c23` the Potency was inconclusive: 3.55 µM [inhibitor, full curve, poor fit]. With `COC(=O)c1ccc(C2c3[nH]c4ccccc4c3C[C@H]3C(=O)N(C)CC(=O)N23)cc1` (some centres undefined) the Potency was inconclusive: 0.708 µM [inhibitor, full curve, poor fit]. With `O=C(NC1CCCCC1)C(c1ccncc1)N(Cc1ccccc1)C(=O)c1ccc(-c2ccccc2)[nH]1` (centres undefined) the “activity, negative = active” value was inactive: -4.5%. With `O=C1CCCC2=C1C(c1ccco1)Nc1ccc3ccccc3c12` (centres undefined) the Potency was inconclusive: 35.5 µM [inhibitor, single point]. For `CCOc1cc(/C=C2\CCCc3c2nc2ccccc2c3C(=O)O)ccc1OC`, the Potency was inconclusive: 3.55 µM [inhibitor, single point]. In the case of `COc1cccc(CN2CCNC(=O)C2CC(=O)N2CCCCO2)c1OC` (centres undefined), the Potency is reported as inconclusive: 5.62 µM [inhibitor, single point]. In the case of `Cc1cc(-c2c(C)[nH]n(-c3ccccc3)c2=O)n[nH]1`, the Potency is reported as inconclusive: 5.62 µM [inhibitor, single point]. With `O=C(CSc1ccc(-c2ccco2)nn1)NCc1ccccc1` the “activity, negative = active” value was inactive: 3.29%. In the case of `O=C(Nc1ccc(Oc2c(F)c(F)c(F)c(F)c2F)cc1)OC1CCN2Cc3ccccc3N=C12` (centres undefined), the Potency is reported as inconclusive: 6.31 µM [inhibitor, single point]. With `Cc1ccc(NC(=O)N2CCN(C(=O)c3ccco3)CC2)cc1Cl` the Potency was inconclusive: 2.82 µM [inhibitor, single point].
